Our source for the binding values is publication PMC6325770.

Amino acid sequences for entries named in this document (tags omitted).
UniProt Q9Y696: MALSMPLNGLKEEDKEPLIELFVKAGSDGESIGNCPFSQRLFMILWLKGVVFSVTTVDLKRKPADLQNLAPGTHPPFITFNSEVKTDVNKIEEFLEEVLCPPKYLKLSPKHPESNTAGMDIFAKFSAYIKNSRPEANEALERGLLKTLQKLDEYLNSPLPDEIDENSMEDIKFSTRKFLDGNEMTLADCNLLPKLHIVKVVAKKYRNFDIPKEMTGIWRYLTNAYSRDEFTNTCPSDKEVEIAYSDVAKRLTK
UniProt Q9Y2X7: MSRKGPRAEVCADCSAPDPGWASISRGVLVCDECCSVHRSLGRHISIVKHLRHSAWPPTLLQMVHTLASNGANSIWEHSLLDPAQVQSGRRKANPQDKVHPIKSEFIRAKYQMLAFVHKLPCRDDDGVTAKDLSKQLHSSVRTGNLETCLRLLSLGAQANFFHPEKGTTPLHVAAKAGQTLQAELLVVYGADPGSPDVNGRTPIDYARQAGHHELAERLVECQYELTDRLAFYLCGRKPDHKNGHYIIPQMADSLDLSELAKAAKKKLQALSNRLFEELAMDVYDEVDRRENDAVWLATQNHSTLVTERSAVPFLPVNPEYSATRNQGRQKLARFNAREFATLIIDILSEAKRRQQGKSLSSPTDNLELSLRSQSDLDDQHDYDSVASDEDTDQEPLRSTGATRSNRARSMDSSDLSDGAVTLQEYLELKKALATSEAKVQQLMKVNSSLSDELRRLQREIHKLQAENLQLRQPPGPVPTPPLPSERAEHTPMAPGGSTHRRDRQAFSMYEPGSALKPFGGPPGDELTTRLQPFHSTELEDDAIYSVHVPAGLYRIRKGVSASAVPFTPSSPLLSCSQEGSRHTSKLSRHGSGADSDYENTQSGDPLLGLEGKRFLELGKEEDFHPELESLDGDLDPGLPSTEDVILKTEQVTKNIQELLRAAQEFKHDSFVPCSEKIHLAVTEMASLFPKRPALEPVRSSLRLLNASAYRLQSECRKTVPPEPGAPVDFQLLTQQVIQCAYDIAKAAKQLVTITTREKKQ
UniProt Q04206: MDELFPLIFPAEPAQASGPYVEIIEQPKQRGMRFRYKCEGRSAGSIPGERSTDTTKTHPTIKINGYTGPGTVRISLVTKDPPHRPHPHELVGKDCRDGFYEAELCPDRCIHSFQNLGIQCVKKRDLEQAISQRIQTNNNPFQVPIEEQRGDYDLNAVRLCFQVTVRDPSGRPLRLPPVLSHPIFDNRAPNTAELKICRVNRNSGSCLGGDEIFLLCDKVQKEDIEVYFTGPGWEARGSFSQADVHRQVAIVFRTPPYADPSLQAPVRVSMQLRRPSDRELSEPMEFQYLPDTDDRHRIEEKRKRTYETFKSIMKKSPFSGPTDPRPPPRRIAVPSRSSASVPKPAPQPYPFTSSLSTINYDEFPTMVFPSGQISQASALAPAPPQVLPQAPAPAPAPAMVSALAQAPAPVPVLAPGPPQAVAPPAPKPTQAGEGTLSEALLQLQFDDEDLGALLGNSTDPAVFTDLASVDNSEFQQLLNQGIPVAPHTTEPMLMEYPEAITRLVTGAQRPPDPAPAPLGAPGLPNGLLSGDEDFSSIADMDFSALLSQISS

No constants are given. Whether binding was seen depends on the method and setting. In cells and extracts the contact can be indirect. Here binding means that the protein was enriched with, or labelled near, the bait; the list need not be complete.

B1: GIT2 (protein, UniProt Q14161 1-759)
chain: MSKRLRSSEVCADCSGPDPSWASVNRGTFLCDECCSVHRSLGRHISQVRHLKHTPWPPTLLQMVETLYNNGANSIWEHSLLDPASIMSGRRKANPQDKVHPNKAEFIRAKYQMLAFVHRLPCRDDDSVTAKDLSKQLHSSVRTGNLETCLRLLSLGAQANFFHPEKGNTPLHVASKAGQILQAELLAVYGADPGTQDSSGKTPVDYARQGGHHELAERLVEIQYELTDRLAFYLCGRKPDHKNGQHFIIPQMADSSLDLSELAKAAKKKLQSLSNHLFEELAMDVYDEVDRRETDAVWLATQNHSALVTETTVVPFLPVNPEYSSTRNQGRQKLARFNAHEFATLVIDILSDAKRRQQGSSLSGSKDNVELILKTINNQHSVESQDNDQPDYDSVASDEDTDLETTASKTNRQKSLDSDLSDGPVTVQEFMEVKNALVASEAKIQQLMKVNNNLSDELRIMQKKLQTLQSENSNLRKQATTNVYQVQTGSEYTDTSNHSSLKRRPSARGSRPMSMYETGSGQKPYLPMGEASRPEESRMRLQPFPAHIGRSALVTSSSSLPSFPSTLSWSRDESARRASRLEKQNSTPESDYDNTPNDMEPDGMGSSRKGRQRSMVWPGDGLVPDTAEPHVAPSPTLPSTEDVIRKTEQITKNIQELLRAAQENKHDSYIPCSERIHVAVTEMAALFPKKPKSDMVRTSLRLLTSSAYRLQSECKKTLPGDPGSPTDVQLVTQQVIQCAYDIAKAAKQLVTITTKENNN
B2: ubiquitin conjugation factor E4 A (protein, UniProt Q14139 1-1066)
chain: MTDQENNNNISSNPFAALFGSLADAKQFAAIQKEQLKQQSDELPASPDDSDNSVSESLDEFDYSVAEISRSFRSQQEICEQLNINHMIQRIFLITLDNSDPSLKSGNGIPSRCVYLEEMAVELEDQDWLDMSNVEQALFARLLLQDPGNHLINMTSSTTLNLSADRDAGERHIFCYLYSCFQRAKEEITKVPENLLPFAVQCRNLTVSNTRTVLLTPEIYVDQNIHEQLVDLMLEAIQGAHFEDVTEFLEEVIEALILDEEVRTFPEVMIPVFDILLGRIKDLELCQILLYAYLDILLYFTRQKDMAKVFVEYIQPKDPTNGQMYQKTLLGVILSISCLLKTPGVVENHGYFLNPSRSSPQEIKVQEANIHQFMAQFHEKIYQMLKNLLQLSPETKHCILSWLGNCLHANAGRTKIWANQMPEIFFQMYASDAFFLNLGAALLKLCQPFCKPRSSRLLTFNPTYCALKELNDEERKIKNVHMRGLDKETCLIPAVQEPKFPQNYNLVTENLALTEYTLYLGFHRLHDQMVKINQNLHRLQVAWRDAQQSSSPAADNLREQFERLMTIYLSTKTAMTEPQMLQNCLNLQVSMAVLLVQLAIGNEGSQPIELTFPLPDGYSSLAYVPEFFADNLGDFLIFLRRFADDILETSADSLEHVLHFITIFTGSIERMKNPHLRAKLAEVLEAVMPHLDQTPNPLVSSVFHRKRVFCNFQYAPQLAEALIKVFVDIEFTGDPHQFEQKFNYRRPMYPILRYMWGTDTYRESIKDLADYASKNLEAMNPPLFLRFLNLLMNDAIFLLDEAIQYLSKIKIQQIEKDRGEWDSLTPEARREKEAGLQMFGQLARFHNIMSNETIGTLAFLTSEIKSLFVHPFLAERIISMLNYFLQHLVGPKMGALKVKDFSEFDFKPQQLVSDICTIYLNLGDEENFCATVPKDGRSYSPTLFAQTVRVLKKINKPGNMIMAFSNLAERIKSLADLQQQEEETYADACDEFLDPIMSTLMCDPVVLPSSRVTVDRSTIARHLLSDQTDPFNRSPLTMDQIRPNTELKEKIQRWLAERKQQKEQLE

For this assay, the target named is hemagglutinin-tagged CLIC4 (chloride intracellular channel 4) (UniProt Q9Y696). The assay can be described thus: affinity purification with mass spectrometry; hemagglutinin-tagged CLIC4 purified with a hemagglutinin-tagged protein purification kit from lysates of HPAECs 24 h after infection with AdCLIC4; SDS-PAGE, in-gel digestion, nano-LC-MS/MS; only proteins unique to the hemagglutinin-tag purification fraction listed.
Consider “GIT1 (G-protein-coupled receptor kinase-interacting protein 1), endogenous (from UniProt Q9Y2X7 1-761)”, for which the binding result is listed as “binds”. The same measure for p65NF-kB (from UniProt Q04206 1-551): “binds”; for B1: “binds”; for B2: “binds”.
